From PubChem BioAssay AID2685 (National Center for Advancing Translational Sciences (NCATS), 2010)
The other results are listed elsewhere or left out. These are further read-outs of the screen, such as a control signal, another cell line or another target. No call is given for them. Compounds called inactive in the main read-out are mostly missing here. Potencies come from curve fits of mixed quality, noted in brackets.

Experiment: qHTS Assay for Lipid Storage Modulators in Drosophila S3 Cells;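 as to cell number change: cells counted by Cell Tracker Red CMTPX staining in the red channel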
Settings: BODIPY lipid droplet fluorescence, 18-24 h; for cell number change: measured here: cell count max response, cells fed with added oleic acid
Outline: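 Drosophila S3 cells got compounds at several concentrations plus oleic acid (400 uM solution). Laser-scanning cytometry with 488 nm excitation read lipid droplets at 500-530 nm and cells at 575-640 nm. Percent activity was relative to 20 uM Triacsin C.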

[1] = measured here: cell number channel AC50, cells fed with added oleic acid
[2] = measured here: lipid fluorescence (Fed channel) AC50, cells fed with added oleic acid

SMILES | cell number change [%] | AC50 [1] | AC50 [2]
CC/C(=N\NC(=O)c1ccc(N(C)C)cc1)c1ccccc1 | 30.6 | 5.17 µM [rising, full curve, poor fit] | 5.8 µM [rising, full curve, poor fit]
OCCN1CCN(c2nc(-c3ccccc3)nc3c2oc2ccccc23)CC1 |  |  | 0.651 µM [rising, partial curve]
COc1cccc(/C(C)=N/NC(=O)c2ccc(N(C)C)cc2)c1 | -27.8 |  | 5.17 µM [falling, partial curve]
CSc1nc(C)c(CCOC(=O)c2ccccc2)c(=O)[nH]1 | 12.4 |  | 0.731 µM [rising, full curve]
CC(=O)Nc1ccc(S(=O)(=O)Nc2ccc(-c3ccc4nnc(C)n4n3)cc2)cc1 | -3.08 | 3.66 µM [falling, single point] | 
CCOc1ccc2nc(-c3ccccc3)[nH]c2c1 | -24.9 |  | 
CC(C)OC(=O)c1ccc(Cn2nnc3ccccc3c2=O)cc1 | 103 | 16.4 µM [rising, partial curve] | 0.231 µM [rising, full curve]
FC(F)(F)c1cccc(N2CCN(c3ccc4nnc(-c5ccccc5)n4n3)CC2)c1 | -52.1 | 23.1 µM [falling, partial curve, poor fit] | 
Cc1[nH]c2ccc(C(=O)NCCCN3CCN(C)CC3)cc2c1C | 22.2 |  | 
COc1ccc(-n2c(C)cc(/C=N/Nc3nnc(C)n3N)c2C)cc1 | -42.7 | 16.4 µM [falling, partial curve] | 13 µM [falling, partial curve]
Cn1c(CCN2CCCCC2)nc2cc(NS(=O)(=O)c3ccc(F)cc3)ccc21 | -13.7 |  | 
O=C(COC(=O)[C@H](Cc1ccccc1)NC(=O)c1ccco1)NCc1ccccc1 | -19 |  | 29.1 µM [rising, single point]
Cc1noc(C)c1COC(=O)c1ccc(F)c(S(=O)(=O)N2CCCCC2)c1 | 13.3 | 0.82 µM [rising, partial curve, poor fit] | 
CCOc1ccccc1NC(=O)c1ccc2ccccc2c1 | 7.3 |  | 0.13 µM [rising, full curve, poor fit]
O=C(c1cc(COc2ccc3ncccc3c2)on1)N1CCC(O)CC1 | 12.1 |  | 1.03 µM [rising, full curve, poor fit]
CCCn1c(=O)c(C(=O)NNC(=O)Cc2ccccc2)c(O)c2ccccc21 | 6.41 |  | 
Cc1ccccc1C(=O)NC1CCN(CC(=O)N2CCCCC2C)CC1 (stereo unspecified) | -3.85 |  | 
CCOCCCNC(=O)C(c1ccc(OC)cc1)N(Cc1ccc2c(c1)OCO2)C(=O)c1ccccn1 (stereo unspecified) | -41.9 | 32.6 µM [falling, single point] | 29.1 µM [falling, single point]
Cn1c(=S)n(C)c2ccccc21 | -48.2 | 29.1 µM [falling, single point] | 20.6 µM [falling, single point]
FC(F)(F)c1ccc(C2[C@H]3CN(Cc4cccnc4)[C@H](c4ccccc4)C34CC2(c2cccnc2)C4)cc1 (stereo partly specified) |  |  | 2.06 µM [rising, partial curve, poor fit]

SMILES | cell number change [%] | AC50 [1] | AC50 [2]
COc1ccccc1C(=O)NCCC(=O)Nc1ccc(S(=O)(=O)N2C(C)CCCC2C)cc1 (stereo unspecified) | -0.184 |  | 6.51 µM [falling, full curve]
CCOC(=O)c1sc2ncn(C(CC)C(=O)OCC)c(=O)c2c1C (stereo unspecified) | -21.1 |  | 1.64 µM [rising, full curve, poor fit]
Cn1c(C(=O)N2CCN(c3ccccn3)CC2)cc2ccccc21 | 12.9 |  | 32.6 µM [falling, single point]
O=C(CN1C(=O)NC(c2ccccc2)(c2ccccc2)C1=O)NCc1ccccc1 | -8.65 |  | 
Cc1cccc2sc(NC(=O)CSCc3ccccc3)nc12 |  |  | 0.326 µM [falling, partial curve, poor fit]
COc1ccc(S(=O)(=O)CC(=O)c2cc3cc(Br)ccc3oc2=O)cc1 | -27.6 |  | 6.51 µM [falling, single point]
CNC(=O)c1ccsc1NC(=O)c1ccc(S(=O)(=O)N2CCc3ccccc32)cc1 | 4.87 |  | 2.06 µM [rising, partial curve, poor fit]
CCOC(=O)c1c(S(=O)(=O)NCc2cccs2)c(C)n(C)c1C | -7.58 |  | 29.1 µM [falling, single point]
CC(C)CNC(=O)COc1cccc(C(=O)NCc2ccccc2)c1 | 10.9 |  | 5.17 µM [rising, single point]
CCOc1ccc(NC(=O)CCCNC(=O)Cn2cnc3sc(C)c(C)c3c2=O)cc1 | 18.4 |  | 
CCCc1cc(=O)[nH]c(SCC(=O)N(CC)c2c(N)n(Cc3ccccc3)c(=O)[nH]c2=O)n1 | 2.5 |  | 
COc1cc(OC)c(NC(=O)[C@@H]2CCC(=O)N2C2OC(=O)c3c2ccc(OC)c3OC)cc1Cl (stereo partly specified) |  |  | 29.1 µM [falling, single point]
CCC(C)N1C(=O)CCC1C(=O)N1CCN(c2ccc(F)cc2)CC1 (stereo unspecified) | -89.3 | 20.6 µM [falling, single point] | 18.4 µM [falling, partial curve]
CC(C)c1ccccc1NC(=O)COC(=O)Cc1cccc(C(F)(F)F)c1 |  | 0.731 µM [falling, single point] | 7.31 µM [falling, partial curve, poor fit]
O=[N+]([O-])c1ccc(NCc2ccncc2)cc1 | 39.6 | 3.26 µM [rising, partial curve, poor fit] | 
Cc1c(C)c2cc(Cl)c(O)c(CN(C)C)c2oc1=O | -8.41 |  | 0.517 µM [falling, partial curve]
COc1cccc(C(=O)COc2ccc3c(C)c(Cc4ccccc4)c(=O)oc3c2C)c1 | 111 | 29.1 µM [rising, single point] | 
CC(NC(=O)C(C)N1CCN(Cc2ccccc2)CC1)c1ccc(F)cc1 (stereo unspecified) | 15 |  | 6.51 µM [rising, single point]
CC(C)(C)CC(=O)NC(=S)N1CCCCCC1 | 0.279 |  | 

Ordered by SMILES length (falling): part of the list above.
SMILES | cell number change [%] | AC50 [1] | AC50 [2]
O=C(CN1C(=O)NC(c2ccccc2)(c2ccccc2)C1=O)NCc1ccccc1 | -8.65 |  | 
CCOC(=O)c1sc2ncn(C(CC)C(=O)OCC)c(=O)c2c1C (stereo unspecified) | -21.1 |  | 1.64 µM [rising, full curve, poor fit]
Cn1c(C(=O)N2CCN(c3ccccn3)CC2)cc2ccccc21 | 12.9 |  | 32.6 µM [falling, single point]
